Some of the results follow. Shown are side measurements of this screen, not its main read-out; they come without a call. Compounds called inactive in the main read-out are mostly missing here. Potencies come from curve fits of mixed quality, noted in brackets.
test: Cell signaling CRE-BLA (Fsk stim); details: CHO CRE-bla reporter (cAMP response element driving beta-lactamase), forskolin EC10, beta-lactamase ratio; measured here: 460 nm blue channel
Method in brief: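 qHTS titration format; CRE-bla CHO reporter; stimulus EC10 NKH 477, a water-soluble forskolin. Read: CCF4 460/530 nm ratio. Potency expressed as AC50 for activators or inhibitors.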

Question: With Cc1nnc(SCC(=O)NC(C)(C)C)n1CCc1ccccc1 as the compound, how does the AC50 read?
Answer: 5.01 µM [falling, single point]

Question: For O=c1c(-c2ccc(Cl)cc2)nc2cnc(N3CCOCC3)nc2n1C1CC1, which AC50 is on record?
Answer: 15.8 µM [rising, partial curve]

Question: With COc1ccc(C(=O)Nc2ccc(Cl)cc2C(=O)NCc2ccco2)cc1OC as the compound, how does the AC50 read?
Answer: 12.6 µM [rising, single point]

Question: Which AC50 does the source give for O=C(CSc1nc2c(c(=O)n1-c1ccc(Cl)cc1)SCC2)Nc1ccc2c(c1)OCCO2 here?
Answer: 10 µM [falling, single point]

Question: For CC(C)CCNC(=O)NC(=O)CSc1nnc(-c2ccccc2F)n1N, which AC50 is on record?
Answer: 5.01 µM [falling, single point]

Question: With CCCN1Cc2cccc(C(=O)Nc3ccc(N4CCN(CC)CC4)cc3)c2C1=O as the compound, how does the AC50 read?
Answer: 3.98 µM [rising, single point]

Question: With Cc1ccc(OCCN2CCN(C(=O)CCC(=O)Nc3nnc(C)s3)CC2)cc1 as the compound, how does the AC50 read?
Answer: 10 µM [rising, partial curve]

Question: For Cn1c(C(=O)NCCCN2CCN(c3ccccc3F)CC2)cc2c(=O)n(C)c3ccccc3c21, which AC50 is on record?
Answer: 3.16 µM [rising, full curve]

Question: With COc1ccc(-n2c(=O)cc(N3CCCCCC3)[nH]c2=O)cc1 as the compound, how does the AC50 read?
Answer: 25.1 µM [rising, single point]

Question: Which AC50 does the source give for CCS(=O)(=O)N1CCC(C(=O)NCCCN2CCC(Cc3ccccc3)CC2)CC1 here?
Answer: 0.00794 µM [falling, full curve, poor fit]

Question: Which AC50 does the source give for CCOC(=O)c1sc2ncn(C(CC)C(=O)OCC)c(=O)c2c1C (configuration not stated) here?
Answer: 15.8 µM [rising, single point]

Question: For COc1ccc(Cn2nnnc2C(CC(C)C)N2CCN(c3ccccc3)CC2)cc1 (configuration not stated), which AC50 is on record?
Answer: 0.00316 µM [falling, full curve, poor fit]

Question: With Cc1c(C)c2cc(Cl)c(O)c(CN(C)C)c2oc1=O as the compound, how does the AC50 read?
Answer: 10 µM [rising, partial curve]

Question: With COC(=O)c1cn(NC(=O)C2CCCO2)c(=O)c2ccccc12 (configuration not stated) as the compound, how does the AC50 read?
Answer: 6.31 µM [falling, partial curve]

Question: For CCC1CCCCN1Cc1nc2c(c(=O)n(C)c(=O)n2C)n1CCC(C)C (configuration not stated), which AC50 is on record?
Answer: 15.8 µM [rising, partial curve]

Question: For COc1ccc(CCn2c(N)cc(=O)[nH]c2=S)cc1OC, which AC50 is on record?
Answer: 12.6 µM [rising, partial curve]

Question: With CCOC(=O)N1CCN(C(=O)c2ccc3c(=O)n(Cc4ccccc4)c(=S)[nH]c3c2)CC1 as the compound, how does the AC50 read?
Answer: 1 µM [falling, partial curve]

Question: Which AC50 does the source give for CCNc1ncc2nc(C)c(=O)n(Cc3cccs3)c2n1 here?
Answer: 12.6 µM [rising, partial curve]

Question: For COc1ccc(S(=O)(=O)N2C3CCC2CC(NC(=O)C2CC2)C3)cc1 (configuration not stated), which AC50 is on record?
Answer: 2.51 µM [falling, partial curve, poor fit]

Question: For Fc1ccc2c(c1)[C@H]1OCC[C@H]1[C@@H](c1ccco1)N2, which AC50 is on record?
Answer: 15.8 µM [rising, single point]

Question: Which AC50 does the source give for Nc1cc2c(nc3c4ccccc4c(N)cc3[n+]2-c2cccc3ccccc23)c2ccccc12 (tested in a mixture with another compound) here?
Answer: 0.002 µM [falling, full curve, poor fit]

Question: Which AC50 does the source give for COc1ccc2c(=O)c3c(=O)n(Cc4ccco4)c(-c4cc(OC)c(OC)c(OC)c4)nc3oc2c1 here?
Answer: 2.51 µM [rising, partial curve]

Question: Which AC50 does the source give for CCOc1ccc(N(CC(=O)NC(C)(C)C)C(=O)c2ccco2)cc1 here?
Answer: 0.126 µM [falling, full curve, poor fit]

Question: Which AC50 does the source give for COc1cc(/C=C\C(=O)N2CCC=CC2=O)cc(OC)c1OC here?
Answer: 7.94 µM [falling, partial curve]

Question: For COCCCNC(=O)C1CCN(C(=O)c2cc3sccc3n2Cc2ccc(F)cc2)CC1, which AC50 is on record?
Answer: 0.251 µM [rising, single point]

Question: For CCc1nc(N2CCCCC2)c2oc3ccccc3c2n1, which AC50 is on record?
Answer: 10 µM [rising, partial curve]

Question: For CCOC(=O)C1=C(C)NC2=C(C(=O)CCC2)C1c1cccnc1 (configuration not stated), which AC50 is on record?
Answer: 25.1 µM [rising, single point]

Question: With COc1ccc(NC(=O)c2ccc3c(=O)n(Cc4ccco4)c(=S)[nH]c3c2)c(OC)c1 as the compound, how does the AC50 read?
Answer: 25.1 µM [rising, single point]

Question: With Cc1ccc2nc(Nc3ncc4c(n3)CCCC4=O)nc(C)c2c1 as the compound, how does the AC50 read?
Answer: 1.26 µM [rising, full curve]

Question: Which AC50 does the source give for C=CCSc1nc(N)c(C#N)c(-c2ccccc2)c1C#N here?
Answer: 2 µM [rising, partial curve]

Question: For CCN(CC)CCNC(=O)c1c(O)c2c([nH]c1=O)CCCC2, which AC50 is on record?
Answer: 25.1 µM [falling, single point]

Question: With Cc1cc(=S)n(-c2ccccc2)n1C as the compound, how does the AC50 read?
Answer: 0.631 µM [rising, full curve]

Question: With Clc1ccccc1-c1cc(NCc2ccccc2)ncn1 as the compound, how does the AC50 read?
Answer: 3.98 µM [rising, full curve]

Question: Which AC50 does the source give for CCN1CCN(C(=O)c2ccc3c(=O)n(CCC4=CCCCC4)c(=O)[nH]c3c2)CC1 here?
Answer: 25.1 µM [falling, single point]

Question: Which AC50 does the source give for O=C(COc1ncnc2ccccc12)c1ccc2c(c1)OCCO2 here?
Answer: 0.126 µM [falling, full curve, poor fit]

Question: For COC(=O)Cc1ccc(NC(=O)c2ccc(Br)o2)cc1, which AC50 is on record?
Answer: 0.0794 µM [rising, full curve, poor fit]

Question: With CN(C)CCNc1oc(COc2ccc(-c3ccccc3)cc2)nc1C#N as the compound, how does the AC50 read?
Answer: 15.8 µM [rising, single point]

Question: With O=C(c1ccccc1)[C@@H]1O[C@H]1c1ccc(-c2ccccc2)cc1 as the compound, how does the AC50 read?
Answer: 25.1 µM [falling, partial curve]

Question: Which AC50 does the source give for COc1ccc(C(=O)NC(C)c2nc3ccccc3n2C)cc1OC (configuration not stated) here?
Answer: 25.1 µM [rising, single point]

Question: For CCOC(=O)c1c(CN(C)C)oc2cc(CN(C)C)c(O)c(CSc3ccccc3)c12, which AC50 is on record?
Answer: 7.94 µM [falling, partial curve]

Question: For Cc1nc2ncnn2c(C)c1CCC(=O)NCc1ccco1, which AC50 is on record?
Answer: 0.00398 µM [falling, full curve, poor fit]

Question: For O=c1c2ccccc2oc2nc(C3CCCCC3)n(Cc3ccco3)c(=O)c12, which AC50 is on record?
Answer: 1.26 µM [rising, partial curve]
